Experimental data: patent publication US20220275097A1
These are yes or no findings as the source states them, for the method shown. Some binding calls cover weakened binding; strength is not graded here.

Sequences of proteins named here, by UniProt entry; tags and fusion partners are left off. Residues count along the entry.
UniProt P48357, residues 22-839: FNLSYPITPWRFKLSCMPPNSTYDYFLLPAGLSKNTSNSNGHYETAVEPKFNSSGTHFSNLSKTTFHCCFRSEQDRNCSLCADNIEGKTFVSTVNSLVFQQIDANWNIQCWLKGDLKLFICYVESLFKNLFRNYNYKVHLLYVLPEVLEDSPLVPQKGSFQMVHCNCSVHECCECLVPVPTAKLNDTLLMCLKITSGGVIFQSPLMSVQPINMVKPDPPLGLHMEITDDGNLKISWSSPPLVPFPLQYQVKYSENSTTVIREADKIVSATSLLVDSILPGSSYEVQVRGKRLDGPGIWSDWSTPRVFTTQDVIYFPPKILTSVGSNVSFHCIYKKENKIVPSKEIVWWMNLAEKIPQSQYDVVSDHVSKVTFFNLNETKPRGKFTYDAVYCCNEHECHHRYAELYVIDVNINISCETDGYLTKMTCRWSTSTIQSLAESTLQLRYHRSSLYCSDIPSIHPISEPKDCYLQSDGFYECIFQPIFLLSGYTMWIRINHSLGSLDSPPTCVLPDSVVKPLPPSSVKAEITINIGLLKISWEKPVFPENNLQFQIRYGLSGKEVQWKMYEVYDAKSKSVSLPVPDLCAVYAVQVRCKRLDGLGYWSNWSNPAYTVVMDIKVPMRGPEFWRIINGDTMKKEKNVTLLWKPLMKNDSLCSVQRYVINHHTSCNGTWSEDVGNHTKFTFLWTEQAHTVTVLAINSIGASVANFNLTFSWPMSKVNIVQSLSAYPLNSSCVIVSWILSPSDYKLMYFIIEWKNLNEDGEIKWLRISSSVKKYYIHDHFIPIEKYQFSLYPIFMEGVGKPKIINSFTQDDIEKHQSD
UniProt P41159, residues 22-167: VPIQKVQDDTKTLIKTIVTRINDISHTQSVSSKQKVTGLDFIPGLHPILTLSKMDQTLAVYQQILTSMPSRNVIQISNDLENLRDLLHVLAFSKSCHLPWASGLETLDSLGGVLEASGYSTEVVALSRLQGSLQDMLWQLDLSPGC

Key:
[1] = molecular target: extracellular domain of the human leptin receptor (human) (UniProt P48357); test: SPR (Biacore T200), His-tagged leptin receptor ECD amine-coupled to a CM5 chip, leptin as analyte
[2] = molecular target: extracellular domain of the human leptin receptor (human) (UniProt P48357); test: competition ELISA: plate coated with human leptin receptor ECD, leptin titrated together with fixed S1scAb06 (50, 25 or 12.5 nM), bound antibody detected with a secondary antibody, OD405
[3] = molecular target: extracellular domain of the human leptin receptor (human) (UniProt P48357); test: SPR, Biacore T200
[4] = molecular target: extracellular domain of the human leptin receptor (human) (UniProt P48357); test: competition ELISA: plate coated with human leptin receptor ECD, leptin titrated together with fixed S2H6 (3.12, 1.56 or 0.78 nM), bound antibody detected with a secondary antibody, OD405

Measured: binding

leptin (from UniProt P41159 22-167) (ligand)
binds: all assays above
